Test results: patent US20210393610A1, “COMPOSITIONS AND METHODS FOR TREATING GOUT AND HYPERURICEMIA” (Jiangsu Hengrui Medicine Co., Ltd., priority 2018, published 2021)
The name of at least one read-out is uncertain.

Experiment: PK interaction of the compound of Formula I-1, febuxostat and colchicine (PK parameters in plasma)
Details: combined administration of febuxostat and colchicine
Procedure: The subjects were screened and examined on D-21 to D-15. 0.5 mg of colchicine once a day (qd) were orally administered to those who passed the screening on an empty stomach (D-14 to D16). If the subject was receiving an uric acid-lowering therapy (including allopurinol, febuxostat, benzbromarone, probenecid and the like) at the time of screening, the drug should be withdrawn for at least 2 weeks before D1. The subjects were admitted to the phase I clinical trial ward on D-2, and medical history inquiry, physical examination, vital signs examination, 12-lead electrocardiogram (ECG) examination, blood pregnancy examination (for female of childbearing age) were conducted again [if D-2 was more than 20 days away from the screening period, then blood examination, urine routine examination, CK\CK-MB, blood biochemistry (including serum creatinine and uric acid) examination were also required].
During the hospital stay, the subjects were fasted for more than 10 hours after dinner everyday (with free access to water). […] On D2, the subjects on an empty stomach were subjected to blood sampling, followed by having a standard meal which should be eaten within 20 minutes. Except for before the drug administration and 1 hour after the drug administration, water was consumed as needed at other times. On D3 to 8, no less than 2 L of water was consumed daily. […]

## COc1cc2c(c(OC)c1OC)-c1ccc(OC)c(=O)cc1[C@@H](NC(C)=O)CC2 [colchicine]
  effect of febuxostat on the AUCss of colchicine: substantially no effect
